AC50 data for 40 compounds are collected here from PubChem BioAssay AID493014 (National Center for Advancing Translational Sciences (NCATS), 2011).

The assay in a line: qHTS Assay to Find Inhibitors of Chronic Active B-Cell Receptor Signaling. To be noted: ABC-DLBCL IkBa-CBG/CBR reporter, luminescence ratio (green luciferase fused to IkBa over red control in TMD8 lymphoma cells), 4 h. The method, boiled down: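 Concentration-response series (up to 46 uM) were applied to TMD8 dual-reporter cells for 4 h at 37C with doxycycline. Green/red ratio, after filter-overlap correction, defined %Activity; red signal alone was normalised to basal cells and zero luminescence.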
In general terms: Quantitative high-throughput screening tests each substance at several concentrations.

The mark [1] stands for this setting: measured here: CBR red luminescence, cell number.
Where [2] appears, read: measured here: IkBa-CBG green luminescence.

Each structure is given as a SMILES string. The list shows a part of the results. Further columns of the screen follow, without active or inactive calls. Compounds called inactive in the main read-out are mostly missing here. The note in brackets gives the kind of curve behind each potency; many fits are weak.

The AC50 is the concentration giving half of the maximal activity seen. Consider `COC(=O)c1c(-c2cc(OC)cc(OC)c2)sc2ccc(OC)cc12`, for which the AC50 under setting [1] is 29.1 µM [falling, single point].
Regarding `COc1cnc(-c2ccccc2)nc1Oc1ccc(C(C)(C)C)cc1`, the concentration at half-maximal activity (AC50) under setting [1] is 35.5 µM [falling, single point].
Regarding `CCOc1ccc(-c2noc(CCCC(=O)NCC3CCCO3)n2)cc1OC` (stereo not given), under setting [1], the AC50 is 14.1 µM [falling, partial curve, poor fit].
Same read-out and setting: the result for `Cc1cc(NC(=O)C2CCCC2)n(-c2nc3ccccc3[nH]2)n1` reads 0.112 µM [falling, full curve, poor fit]; that for `CCOc1cc(/C=N/NS(=O)(=O)c2ccccc2)ccc1OS(=O)(=O)c1ccc(C)cc1`, 4.61 µM [falling, single point].
For `COc1ccc(CCC(=O)Nc2cc(S(=O)(=O)N3CCOCC3)ccc2OC(C)C)cc1`, under setting [2], the AC50 is 29.1 µM [falling, partial curve, poor fit].
As to `O=C(/C=C(\O)c1ccccc1)C(=O)NNC(=O)c1ccccc1`, the AC50 under setting [1] is 4.47 µM [falling, partial curve].
Still for that read-out and setting: to `Cc1cccc(NC(=O)CCn2nc(-c3ccccc3)c3ccccc3c2=O)c1` belongs 35.5 µM [falling, single point]; to `CCC(=O)Nc1cccc(NC(=O)c2ccc3c(c2)OCO3)c1`, 6.51 µM [falling, partial curve].
Turning to `NS(=O)(=O)c1ccc(CCNCc2ccccc2OCc2ccc(Cl)cc2)cc1`, under setting [1], the half-maximal activity concentration (AC50) was 17.8 µM [falling, single point].
As for `O=C(Nc1ccccn1)c1cccc(S(=O)(=O)N2CCCCC2)c1`, the half-maximal activity concentration (AC50) under setting [2] is 23.1 µM [rising, partial curve, poor fit].
For the compound `COCCn1c(Cc2ccccc2)nnc1SCC(=O)N1CCCCC1C` (stereo not given), the AC50 under setting [1] is 3.66 µM [falling, partial curve, poor fit].
On to `CC1(c2ccccc2)NC(=O)N(CC(=O)Nc2ccc(Cl)c(S(=O)(=O)N3CCCCC3)c2)C1=O` (stereo not given), for which the AC50 under setting [1] is 3.98 µM [rising, partial curve, poor fit].
In the case of `N#CC1=C(N)N(c2ccc(F)cc2)C2=C(C1c1ccc(O)cc1)S(=O)(=O)CC2` (stereo not given), under setting [1], the AC50 was 5.62 µM [falling, partial curve].
For `O=C(Nc1nccs1)C1CCN(S(=O)(=O)c2ccc(Cl)c(C(F)(F)F)c2)CC1`, the AC50 under setting [1] is 5.17 µM [falling, single point].
On the same count and under the same terms, to `CC(C)N1CCc2c(sc(NC(=O)c3nc4ccccc4s3)c2C(N)=O)C1` belongs 2.82 µM [falling, partial curve, poor fit].
Regarding `O=C(Cc1ccsc1)NNC(=O)c1ccc(F)cc1`, the AC50 under setting [1] is 18.4 µM [falling, single point].
On to `COc1ccc(/C=C2\SC(=S)N(CCC(=O)N(CCO)c3ccccc3)C2=O)cc1OC`, for which, under setting [1], the AC50 is 11.2 µM [falling, partial curve].
As for `O=C1CCCCCN1Cc1nnc(SCc2nc3ccccc3s2)n1-c1ccccn1`, under setting [1], the AC50 was 0.794 µM [rising, full curve, poor fit].
In the case of `O=C(Nc1cccc(S(=O)(=O)N2CCCCC2)c1)c1ccc(Cl)nc1`, the AC50 under setting [1] was 7.31 µM [falling, partial curve, poor fit].
As to `O=C(c1ccc(Cl)c(Cl)c1)c1cnc(Nc2ccccc2)s1`, the half-maximal activity concentration (AC50) under setting [1] was 0.708 µM [falling, partial curve, poor fit].
In the case of `NC(=S)N/N=C/c1ccc(C(F)(F)F)cc1`, the AC50 under setting [1] was 1.3 µM [falling, partial curve, poor fit].
The same measure, in the same setting: to `COc1ccc(N(Cc2cc3ccccc3[nH]c2=O)S(C)(=O)=O)cc1` belongs 9.2 µM [falling, partial curve].
For the compound `CCCCn1c(N)c(N(CCC(C)C)C(=O)CSc2nnc3ccccn23)c(=O)[nH]c1=O`, the AC50 under setting [1] is 7.31 µM [rising, partial curve, poor fit].
As for `O=S(=O)(NCc1ccc(Cl)cc1)c1cccc2cccnc12`, the AC50 under setting [1] was 0.562 µM [falling, full curve, poor fit].
Still for that read-out and setting: to `Cc1ccc(-c2noc(CCC(=O)N3CCCC3)n2)cc1` belongs 11.2 µM [rising, partial curve, poor fit]; to `O=C(CCN1C(=O)/C(=C/C=C/c2ccccc2)SC1=S)Nc1nc2ccccc2s1`, 6.51 µM [falling, partial curve].
Take `C/C(=N\NC(=O)CC(C)C)c1c(C(F)(F)F)[nH]n(-c2nc3ccccc3s2)c1=O`: the AC50 under setting [1] was 10 µM [falling, partial curve, poor fit].
Regarding `O=C1C=C(/C=C/c2ccccc2)C[C@@H](c2ccc3c(c2)OCO3)C1`, the AC50 under setting [1] is 29.1 µM [rising, single point].
Consider `COc1cccc(C2CC(=O)Nc3c2c(=O)nc2c(C)cccn32)c1OC` (stereo not given), for which the AC50 under setting [1] is 0.316 µM [rising, partial curve, poor fit].
With `CC(=O)c1cccc(OCC(=O)NC2CCCCCC2)c1`, the AC50 under setting [1] was 20.6 µM [falling, single point].
As for `COC(=O)c1cc(OC)c(OC)cc1NC(=O)c1cc(OC)cc(OC)c1`, the AC50 under setting [1] was 3.16 µM [falling, partial curve].
With `CCc1cccc2c(C(=O)C(NCCCOC)c3ccccc3)c[nH]c12` (stereo not given), the AC50 under setting [1] is 10 µM [falling, partial curve].
For `COc1cccc(NC(=O)c2ccc(NC(=O)C(C)C)cc2)c1`, the AC50 under setting [2] was 11.2 µM [rising, partial curve, poor fit].
On to `COc1ccc(C2(CNC(=O)c3ccccc3[N+](=O)[O-])CCOCC2)cc1`, for which, under setting [1], the half-maximal activity concentration (AC50) was 28.2 µM [rising, single point].
Regarding `Cn1c(=O)c2c(nc3n2CCCN3CCc2ccccc2)n(C)c1=O`, under setting [1], the AC50 was 2.51 µM [falling, full curve, poor fit].
For the compound `CSc1cccc(N/C(=N/S(=O)(=O)c2ccccc2)NN)c1`, under setting [1], the AC50 was 8.91 µM [falling, single point].
In the case of `Cc1ccc(NC(=O)Nc2ccc(F)c(Cl)c2)cc1`, the AC50 under setting [1] was 14.1 µM [falling, single point].
For `Cc1[nH]c2ccccc2c1C(c1ccncc1)N1CCN(c2ccc(F)cc2)CC1` (stereo not given), the half-maximal activity concentration (AC50) under setting [1] was 16.4 µM [falling, single point].
On the same count and under the same terms, to `Cc1ccc(C)c(NC(=S)N/N=C2/CCCCc3ccccc32)c1` belongs 23.1 µM [rising, partial curve, poor fit].
